According to the supplement of paper PMC5662767:
This is one part of the list. Part of the spread comes from offsets between plates or batches.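 The clonal Drosophila S2 line carries Smoothened with a circularly permuted GFP inserted in its cytoplasmic tail, which fluoresces once Hh-driven phosphorylation opens an inhibitory loop. Per-cell fluorescence was read by flow cytometry, scaled to Hh-stimulated untreated cells. Hits were groups of inhibitors sharing pathway targets that shifted fluorescence consistently, not single compounds.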

Test system: Drosophila S2 cl14 SmoIP sensor cells
Experiment: normalized SmoIP GFP fluorescence (untreated unstimulated = 0%, untreated Hh-stimulated = 100%); higher = more Smo activation sensor fluorescence
Conditions: compound concentration: 15 uM, 24 h
[1] = stimulation: Hh conditioned medium (+Hh)
[2] = stimulation: mock conditioned medium (-Hh)

Row | SMILES | normalized SmoIP GFP fluorescence [1] | normalized SmoIP GFP fluorescence [2]
1 | CN(C)CC(c1ccc(O)cc1)C1(O)CCCCC1 (stereo not drawn) [desvenlafaxine-succinate] | 111% | -6.85%
2 | CC1(C)CCC(CN2CCN(c3ccc(C(=O)NS(=O)(=O)c4ccc(NCC5CCOCC5)c([N+](=O)[O-])c4)c(Oc4cnc5[nH]ccc5c4)c3)CC2)=C(c2ccc(Cl)cc2)C1 | 105% | -2.31%
3 | CCN1CCN(c2ccc(Nc3cc(N(C)C(=O)Nc4c(Cl)c(OC)cc(OC)c4Cl)ncn3)cc2)CC1 | 192% | 42.8%
4 | CCOc1cc(CC(=O)N[C@@H](CC(C)C)c2ccccc2N2CCCCC2)ccc1C(=O)O [Repaglinide] | 170% | 30%
5 | O=C(/C=C\n1cnc(-c2cc(C(F)(F)F)cc(C(F)(F)F)c2)n1)NNc1cnccn1 | 162% | 48.6%
6 | CCCCCCCCOc1ccccc1C(=O)Nc1ccc(C(=O)OCC[N+](C)(CC)CC)cc1 [otilonium-bromide] | 163% | 29.2%
7 | CCN1CCCC1CNC(=O)c1cc(S(=O)(=O)CC)c(N)cc1OC (stereo not drawn) [Amisulpride] | 139% | 1.35%
8 | OCCOCCN1CCN(C2=Nc3ccccc3Sc3ccccc32)CC1 [Quetiapine-fumarate(Seroquel)] | 122% | 0.785%
9 | O=C(NNc1ccccc1)c1ccncc1 | 117% | -0.662%
10 | CNCc1cc(-c2ccccc2F)n(S(=O)(=O)c2cccnc2)c1 | 169% | 27.5%
11 | CN1C(=O)C(Cc2c[nH]c3ccccc23)NC1=S (stereo not drawn) [necrostatin-1] | 185% | 41.6%
12 | COc1ncc(-c2ccc3nccc(-c4ccnnc4)c3c2)cc1NS(=O)(=O)c1ccc(F)cc1F | 29.9% | 16.7%
13 | COc1cc(N2CCC(N)CC2)ccc1Nc1ncc(Cl)c(-c2c[nH]c3ccccc23)n1 | 179% | 72.6%
14 | Cc1ccccc1-n1c(Cn2nc(-c3cccc(O)c3)c3c(N)ncnc32)nc2cccc(C)c2c1=O | 119% | -3.45%

Arranged by SMILES length (low to high): 3 of the compounds above.
Row | SMILES | normalized SmoIP GFP fluorescence [1] | normalized SmoIP GFP fluorescence [2]
9 | O=C(NNc1ccccc1)c1ccncc1 | 117% | -0.662%
13 | COc1cc(N2CCC(N)CC2)ccc1Nc1ncc(Cl)c(-c2c[nH]c3ccccc23)n1 | 179% | 72.6%
5 | O=C(/C=C\n1cnc(-c2cc(C(F)(F)F)cc(C(F)(F)F)c2)n1)NNc1cnccn1 | 162% | 48.6%
